These are yes or no findings as the source states them, for the method shown. In cells and extracts the contact can be indirect. Some entries that bind do so weakly or less than the wild type.
Tests used:
[1] = target: GST-fusion protein containing full-length Kindlin-2 (UniProt Q96AC1); assay: pull-down; GST-fusion proteins bound to Glutathione-Sepharose, mixed with BT549 cell lysates overnight at 4 °C, washed three times with PBS containing 0.2% Triton X-100, immunoblot for endogenous AR; only the target purified
[2] = target: Flag-tagged wild-type Kindlin-2 (UniProt Q96AC1); assay: co-IP; lysates of Kindlin-2 knockdown BT549 cells infected with lentivirus encoding 3×Flag-tagged Kindlin-2 WT, ΔF1 or ΔF0; IP with anti-Flag antibody, immunoblot for endogenous AR and Src
[3] = target: Kindlin-2 (human (endogenous in BT549 and MDA-MB-453)) (UniProt Q96AC1); assay: co-IP; endogenous proteins in BT549 or MDA-MB-453 cell lysates (3 mg); IP with anti-Kindlin-2 (clone 3A3) or anti-AR antibody on protein A/G-Sepharose, overnight at 4 °C, control mouse or rabbit IgG, immunoblot; also control siRNA against Kindlin-2 siRNA BT549 cells (anti-AR IP, Fig. 1E)
[4] = target: Androgen receptor (human (endogenous in BT549 and MDA-MB-453)) (UniProt P10275); assay: as above

Chains of the proteins cited; added tags and fusions are not shown.
UniProt Q96AC1: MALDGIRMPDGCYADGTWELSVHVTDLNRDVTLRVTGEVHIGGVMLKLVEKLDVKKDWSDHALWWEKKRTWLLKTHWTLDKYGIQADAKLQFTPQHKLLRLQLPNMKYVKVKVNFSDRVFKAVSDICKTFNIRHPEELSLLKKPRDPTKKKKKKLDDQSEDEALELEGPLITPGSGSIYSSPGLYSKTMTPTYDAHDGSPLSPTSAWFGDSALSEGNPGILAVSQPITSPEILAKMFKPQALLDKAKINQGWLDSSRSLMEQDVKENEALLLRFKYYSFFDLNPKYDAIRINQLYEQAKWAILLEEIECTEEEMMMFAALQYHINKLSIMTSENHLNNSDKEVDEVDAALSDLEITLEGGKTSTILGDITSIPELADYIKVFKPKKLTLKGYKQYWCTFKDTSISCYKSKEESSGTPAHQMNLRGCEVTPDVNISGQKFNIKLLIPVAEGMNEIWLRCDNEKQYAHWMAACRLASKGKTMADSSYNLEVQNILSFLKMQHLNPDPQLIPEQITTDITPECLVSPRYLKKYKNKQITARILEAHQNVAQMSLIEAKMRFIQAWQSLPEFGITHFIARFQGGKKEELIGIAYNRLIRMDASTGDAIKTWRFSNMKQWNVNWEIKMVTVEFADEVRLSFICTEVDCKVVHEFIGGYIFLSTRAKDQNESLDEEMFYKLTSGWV
UniProt P10275: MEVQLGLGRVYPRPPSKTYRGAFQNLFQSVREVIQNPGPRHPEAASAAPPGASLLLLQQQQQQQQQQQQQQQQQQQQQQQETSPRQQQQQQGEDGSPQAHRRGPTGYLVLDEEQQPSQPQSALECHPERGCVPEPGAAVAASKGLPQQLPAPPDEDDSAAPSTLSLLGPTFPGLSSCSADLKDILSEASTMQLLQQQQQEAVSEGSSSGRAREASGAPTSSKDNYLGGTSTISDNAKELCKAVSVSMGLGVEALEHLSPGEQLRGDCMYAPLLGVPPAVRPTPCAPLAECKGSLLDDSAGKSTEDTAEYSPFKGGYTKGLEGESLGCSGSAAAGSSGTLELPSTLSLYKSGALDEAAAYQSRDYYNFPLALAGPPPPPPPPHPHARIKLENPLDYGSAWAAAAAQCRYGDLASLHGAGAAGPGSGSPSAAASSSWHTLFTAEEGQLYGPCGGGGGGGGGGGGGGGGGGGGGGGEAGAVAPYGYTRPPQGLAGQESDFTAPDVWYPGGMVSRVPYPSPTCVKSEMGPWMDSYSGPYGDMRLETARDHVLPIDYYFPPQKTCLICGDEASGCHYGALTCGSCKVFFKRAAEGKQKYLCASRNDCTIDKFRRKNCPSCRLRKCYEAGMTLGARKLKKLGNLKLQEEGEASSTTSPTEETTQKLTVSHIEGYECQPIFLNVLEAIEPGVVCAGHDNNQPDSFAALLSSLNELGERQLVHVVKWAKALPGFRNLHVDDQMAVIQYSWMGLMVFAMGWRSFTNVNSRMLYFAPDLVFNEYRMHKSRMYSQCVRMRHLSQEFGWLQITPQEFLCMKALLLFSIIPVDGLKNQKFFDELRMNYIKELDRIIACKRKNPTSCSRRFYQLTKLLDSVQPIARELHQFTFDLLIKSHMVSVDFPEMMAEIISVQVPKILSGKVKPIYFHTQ

binding [1]	binding [2]	binding [3]	binding [4]	Substance
binds	binds	binds		Androgen receptor (from UniProt P10275 1-920)
			binds	Kindlin-2 (from UniProt Q96AC1 1-680)
